{
  "source": "the supplement of paper PMC8728848",
  "experiment_in_all_cases": "glycan array binding signal (z-score within array); higher = stronger binding",
  "settings_in_all_cases": "glycan notation: IUPAC condensed, linker removed",
  "key": {"[1]": {"biological_target": "Neu5Ac(a2-3)Gal(b1-4)GlcNAc(b1-6)GalNAc", "how_it_was_run": "(§1)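 Glycan array data came from 3228 arrays in the Consortium for Functional Glycomics database, and only arrays with an available protein sequence were kept. Glycan names were put into IUPAC-condensed notation, and columns mapping to the same glycan were averaged. The binding signal is a within-array Z-score, averaged across arrays of one protein sequence run at different concentrations or buffers and across linkers. A negative Z-score can be read as non-binding.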"}, "[2]": {"biological_target": "Neu5Ac(a2-3)Gal(b1-4)GlcNAc(b1-6)[Gal(b1-3)]GalNAc", "how_it_was_run": "as §1"}, "[3]": {"biological_target": "Neu5Ac(a2-3)Gal(b1-4)GlcNAc(b1-6)[Neu5Ac(a2-3)Gal(b1-3)]GalNAc", "how_it_was_run": "as §1"}, "[4]": {"biological_target": "Neu5Ac(a2-3)Gal(b1-4)GlcNAc6S", "how_it_was_run": "as §1"}, "[5]": {"biological_target": "Neu5Ac(a2-3)Gal(b1-4)[Fuc(a1-3)]GlcNAc", "how_it_was_run": "as §1"}, "[6]": {"biological_target": "Neu5Ac(a2-3)Gal(b1-4)[Fuc(a1-3)]GlcNAc(b1-2)Man", "how_it_was_run": "as §1"}, "[7]": {"biological_target": "Neu5Ac(a2-3)Gal(b1-4)[Fuc(a1-3)]GlcNAc(b1-3)Gal", "how_it_was_run": "as §1"}, "[8]": {"biological_target": "Neu5Ac(a2-3)Gal(b1-4)[Fuc(a1-3)]GlcNAc(b1-3)Gal(b1-4)GlcNAc", "how_it_was_run": "as §1"}, "[9]": {"biological_target": "Neu5Ac(a2-3)Gal(b1-4)[Fuc(a1-3)]GlcNAc(b1-3)Gal(b1-4)[Fuc(a1-3)]GlcNAc(b1-3)Gal(b1-4)[Fuc(a1-3)]GlcNAc", "how_it_was_run": "as §1"}, "[10]": {"biological_target": "Neu5Ac(a2-3)Gal(b1-4)[Fuc(a1-3)]GlcNAc(b1-3)GalNAc", "how_it_was_run": "as §1"}, "[11]": {"biological_target": "Neu5Ac(a2-3)Gal(b1-4)[Fuc(a1-3)]GlcNAc(b1-6)[Gal(b1-3)]GalNAc", "how_it_was_run": "as §1"}, "[12]": {"biological_target": "Neu5Ac(a2-3)Gal(b1-4)[Fuc(a1-3)]GlcNAc(b1-6)[Neu5Ac(a2-3)Gal(b1-3)]GalNAc", "how_it_was_run": "as §1"}, "[13]": {"biological_target": "Neu5Ac(a2-3)Gal(b1-4)[Fuc(a1-3)]GlcNAc6S", "how_it_was_run": "as §1"}, "[14]": {"biological_target": "Neu5Ac(a2-3)Gal6S(b1-4)GlcNAc", "how_it_was_run": "as §1"}, "[15]": {"biological_target": "Neu5Ac(a2-3)Gal6S(b1-4)[Fuc(a1-3)]GlcNAc", "how_it_was_run": "as §1"}, "Neu5Ac(a2-3)GalNAc": {"biological_target": "Neu5Ac(a2-3)GalNAc", "how_it_was_run": "as §1"}, "[16]": {"biological_target": "Neu5Ac(a2-3)GalNAc(b1-4)GlcNAc", "how_it_was_run": "as §1"}, "[17]": {"biological_target": "Neu5Ac(a2-3)[GalNAc(b1-4)]Gal(b1-4)Glc", "how_it_was_run": "as §1"}, "[18]": {"biological_target": "Neu5Ac(a2-3)[GalNAc(b1-4)]Gal(b1-4)GlcNAc", "how_it_was_run": "as §1"}, "[19]": {"biological_target": "Neu5Ac(a2-3)[GalNAc(b1-4)]Gal(b1-4)GlcNAc(b1-3)GalNAc", "how_it_was_run": "as §1"}, "[20]": {"biological_target": "Neu5Ac(a2-3)[Neu5Ac(a2-6)]GalNAc", "how_it_was_run": "as §1"}, "Neu5Ac(a2-6)Gal": {"biological_target": "Neu5Ac(a2-6)Gal", "how_it_was_run": "as §1"}, "[21]": {"biological_target": "Neu5Ac(a2-6)Gal(b1-3)GlcNAc(b1-3)[Gal(b1-4)GlcNAc(b1-6)]Gal(b1-4)Glc", "how_it_was_run": "as §1"}, "Neu5Ac(a2-6)Gal(b1-4)Glc": {"biological_target": "Neu5Ac(a2-6)Gal(b1-4)Glc", "how_it_was_run": "as §1"}, "[22]": {"biological_target": "Neu5Ac(a2-6)Gal(b1-4)GlcNAc", "how_it_was_run": "as §1"}, "[23]": {"biological_target": "Neu5Ac(a2-6)Gal(b1-4)GlcNAc(b1-2)Man", "how_it_was_run": "as §1"}, "[24]": {"biological_target": "Neu5Ac(a2-6)Gal(b1-4)GlcNAc(b1-2)Man(a1-3)Man(b1-4)GlcNAc(b1-4)GlcNAc", "how_it_was_run": "as §1"}, "[25]": {"biological_target": "Neu5Ac(a2-6)Gal(b1-4)GlcNAc(b1-2)Man(a1-3)[Gal(b1-4)GlcNAc(b1-2)Man(a1-6)]Man(b1-4)GlcNAc(b1-4)GlcNAc", "how_it_was_run": "as §1"}, "[26]": {"biological_target": "Neu5Ac(a2-6)Gal(b1-4)GlcNAc(b1-2)Man(a1-3)[GlcNAc(b1-2)Man(a1-6)]Man(b1-4)GlcNAc(b1-4)GlcNAc", "how_it_was_run": "as §1"}, "[27]": {"biological_target": "Neu5Ac(a2-6)Gal(b1-4)GlcNAc(b1-2)Man(a1-3)[GlcNAc(b1-4)][Neu5Ac(a2-6)Gal(b1-4)GlcNAc(b1-2)Man(a1-6)]Man(b1-4)GlcNAc(b1-4)GlcNAc", "how_it_was_run": "as §1"}},
  "note": "Some of the results follow.",
  "data": [
    {"binder": "CD4 (Rattus norvegicus), P05540 (protein) MCRGFSFRHLLPLLLLQLSKLLVVTQGSTSITAYKSEGESAEFSFPLNLGEESLQGELRWKAEKAPSSQSWITFSLKNQKVSVQKSTSNPKFQLSETLPLTLQIPQVSLQFAGSGNLTLTLDRGILYQEVNLVVMKVTQPDSNTLTCEVMGPTSPKMRLILKQENQEARVSRQEKVIQVQAPEAGVWQCLLSEGEEVKMDSKIQVLSKGLNSGGGSGGGTGGGDLAPQMLRELQETNAALQDVRELLRQQVKEITFLKNTVMECDACGLDRNLPPLAPLGPHPETLVKVKDAEDQLGARVGYIELDLNSGKILESFRPEERFPMMSTFKVLLCGAVLSRIDAGQEQLGRRIHYSQNDLVEYSPVTEKHLTDGMTVRELCSAAITMSDNTAANLLLTTIGGPKELTAFLHNMGDHVTRLDRWEPELNEAIPNDERDTTMPVAMATTLRKLLTGELLTLASRQQLIDWMEADKVAGPLLRSALPAGWFIADKSGAGERGSRGIIAALGPDGKPSRIVVIYTTGSQATMDERNRQIAEIGASLIKHW", "values": [
      {"measurement": "glycan array binding signal (z-score)", "setting": "[1]", "result": -1.06},
      {"measurement": "glycan array binding signal (z-score)", "setting": "[2]", "result": 2.02},
      {"measurement": "glycan array binding signal (z-score)", "setting": "[3]", "result": 1.19},
      {"measurement": "glycan array binding signal (z-score)", "setting": "[4]", "result": -0.502},
      {"measurement": "glycan array binding signal (z-score)", "setting": "[5]", "result": -0.583},
      {"measurement": "glycan array binding signal (z-score)", "setting": "[6]", "result": 0.582},
      {"measurement": "glycan array binding signal (z-score)", "setting": "[7]", "result": -1.08},
      {"measurement": "glycan array binding signal (z-score)", "setting": "[8]", "result": 0.621},
      {"measurement": "glycan array binding signal (z-score)", "setting": "[9]", "result": 0.072},
      {"measurement": "glycan array binding signal (z-score)", "setting": "[10]", "result": 2.77},
      {"measurement": "glycan array binding signal (z-score)", "setting": "[11]", "result": 0.882},
      {"measurement": "glycan array binding signal (z-score)", "setting": "[12]", "result": 0.635},
      {"measurement": "glycan array binding signal (z-score)", "setting": "[13]", "result": -0.73},
      {"measurement": "glycan array binding signal (z-score)", "setting": "[14]", "result": 0.151},
      {"measurement": "glycan array binding signal (z-score)", "setting": "[15]", "result": -1.1},
      {"measurement": "glycan array binding signal (z-score)", "setting": "Neu5Ac(a2-3)GalNAc", "result": 0.02},
      {"measurement": "glycan array binding signal (z-score)", "setting": "[16]", "result": -1.32},
      {"measurement": "glycan array binding signal (z-score)", "setting": "[17]", "result": -0.796},
      {"measurement": "glycan array binding signal (z-score)", "setting": "[18]", "result": -0.578},
      {"measurement": "glycan array binding signal (z-score)", "setting": "[19]", "result": -0.449},
      {"measurement": "glycan array binding signal (z-score)", "setting": "[20]", "result": 0.448},
      {"measurement": "glycan array binding signal (z-score)", "setting": "Neu5Ac(a2-6)Gal", "result": -0.159},
      {"measurement": "glycan array binding signal (z-score)", "setting": "[21]", "result": 0.152},
      {"measurement": "glycan array binding signal (z-score)", "setting": "Neu5Ac(a2-6)Gal(b1-4)Glc", "result": -0.538},
      {"measurement": "glycan array binding signal (z-score)", "setting": "[22]", "result": -0.837},
      {"measurement": "glycan array binding signal (z-score)", "setting": "[23]", "result": 0.122},
      {"measurement": "glycan array binding signal (z-score)", "setting": "[24]", "result": 0.03},
      {"measurement": "glycan array binding signal (z-score)", "setting": "[25]", "result": -0.103},
      {"measurement": "glycan array binding signal (z-score)", "setting": "[26]", "result": -0.367},
      {"measurement": "glycan array binding signal (z-score)", "setting": "[27]", "result": -0.17}
    ]}
  ]
}
